Record: PubChem BioAssay AID1159584 (Peter MacCallum Cancer Centre, 2016)

- Aim: 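Genes whose loss is lethal only together with E-cadherin loss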 (primary screen)
- Cell system: human MCF10A breast epithelial cells, parental and CDH1-null
- Knock-down reagent: siRNA against human genes
- Detection: 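Cell viability by CellTiter-Glo ATP luminescence, each line scaled to the mean of mock wells across plates, then CDH1-null over parental ratio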
- Direction: CDH1-null / parental viability ratio: higher = CDH1-null cells survive relatively better than parental
This is one part, drawn at random, of about 18,000 reagents tested. Further read-outs or replicates are left out here. The record does not give: the amount of reagent, the time to read-out.

Gene	CDH1-null / parental viability ratio
OPHN1 (GeneID 4983)	0.99
SHQ1 (GeneID 55164)	1.02
TEPSIN (GeneID 146705)	1.13
ZNF17 (GeneID 7565)	0.78
GCFC2 (GeneID 6936)	1.09
CHIA (GeneID 27159)	1.05
GALM (GeneID 130589)	1.08
KRTAP9-2 (GeneID 83899)	1.15
HSPBP1 (GeneID 23640)	0.98
GRAMD1A (GeneID 57655)	0.88
DEFB136 (GeneID 613210)	1.1
CCNL1 (GeneID 57018)	1.19
FSCN2 (GeneID 25794)	1.43
CDKN2C (GeneID 1031)	1.06
TYK2 (GeneID 7297)	1.23

Already shown: 8 of the entries above.
Gene	CDH1-null / parental viability ratio
ZNF17 (GeneID 7565)	0.78
GCFC2 (GeneID 6936)	1.09
CHIA (GeneID 27159)	1.05
GALM (GeneID 130589)	1.08
KRTAP9-2 (GeneID 83899)	1.15
HSPBP1 (GeneID 23640)	0.98
GRAMD1A (GeneID 57655)	0.88
DEFB136 (GeneID 613210)	1.1

The list goes on:
Gene	CDH1-null / parental viability ratio
BARX1 (GeneID 56033)	0.87
CEACAM7 (GeneID 1087)	0.87
PPP1R36 (GeneID 145376)	1.07
DUOX2 (GeneID 50506)	0.94
NEMF (GeneID 9147)	1.08
CPB1 (GeneID 1360)	1.06
CDKL5 (GeneID 6792)	0.76
SESN1 (GeneID 27244)	1.13
KLF3 (GeneID 51274)	0.84
PSMD9 (GeneID 5715)	1.09
ISCA2 (GeneID 122961)	0.88
OPN3 (GeneID 23596)	1.33
KIF13B (GeneID 23303)	1.01
MMP17 (GeneID 4326)	1.04
CD300E (GeneID 342510)	0.71
RACK1 (GeneID 10399)	0.67
PKM (GeneID 5315)	0.98
LRP12 (GeneID 29967)	1.28
UBLCP1 (GeneID 134510)	1.35
EEFSEC (GeneID 60678)	1.35
LEO1 (GeneID 123169)	0.95
DCST2 (GeneID 127579)	1.15
VPS37C (GeneID 55048)	0.8
CLEC4D (GeneID 338339)	1.01
APC2 (GeneID 10297)	0.83
DRD2 (GeneID 1813)	1.04
COG7 (GeneID 91949)	1.35
C10orf55 (GeneID 414236)	1.03
NMUR1 (GeneID 10316)	0.79
NUMBL (GeneID 9253)	1.09
DNAJC2 (GeneID 27000)	0.83
